From patent US10767162B2, “Methods for differentiation” (PRESIDENT AND FELLOWS OF HARVARD COLLEGE, priority 2014, dated 2020)
At least one compound was matched to its structure with a doubt left.

Test system: ES cell line that constitutively over-expressed the transcription factor MyoD
Format: cell-based
Settings: continuous treatment for 7 days; MyoG measured on Day 7; high or low serum
Experimental: Time courses of differentiation were run for 7 days similarly to the previous growth factor withdrawal experiments. MyoD was induced at Day −1, and LIF was removed at Day 0. Cells were kept in either high serum (15% FBS) or low serum (2% HS+Insulin) media throughout the time course. Drug treatments were applied continuously at the designated concentrations for the entire duration of the time course, with daily media change. mRNA expression levels were measured by qRT-PCR. […] All measurements are relative to a DMSO control for the specific condition (i.e. low serum values are still higher than in high serum). L=lethal; drug had strong anti-survival effects so no data was collected. Error bars indicate S.E.M. (n=2).
Perturbations were made both under high and low serum conditions and were extended throughout the time course of differentiation. LY294002 is a potent broad inhibitor of phosphoinositide-3-kinases (PI3Ks), and when applied continuously to ES cells over 7 days induced a significant 2.7 fold increase in Pax3 mRNA expression (FIG. 4). This increase was observed both in high serum and low serum media. […] Myc drives cell cycle progression and growth. […] Both are indirect inhibitors of Myc activity; as yet there are no direct pharmacologic inhibitors of the Myc protein. […]

O=c1cc(N2CCOCC2)oc2c(-c3ccccc3)cccc12 [LY294002]
effect on MyoG (myogenin) expression: no expression of myogenin
